Reference: PubChem BioAssay AID540256 (National Center for Advancing Translational Sciences (NCATS), 2011)
“And” between values parts separate entries of the source, which are not always exact repeats. Identical values can stand only once. In all, about 300,000 compounds went through this assay and about 3,700 (1.2%) were called active. Inconclusive results, whose numbers are uncertain, are shown with a selection of clear calls. The call rests on the fitted dose curve; tested in HEK293 cells. Potencies of inconclusive entries are doubtful fits and often do not repeat.
On the % scale 0 is the no-effect control and ±100 the full control effect; potency means the concentration at half of the fitted maximal effect.

Test: qHTS for Inhibitors of binding or entry into cells for Lassa Virus; further: nearly all actives have a fitted effect of over 50% in size
Conditions: Lassa virus pseudotype entry inhibition, cell reporter; activity change, negative = inhibition: at 37.9 µM (top of the series) unless noted
For C/C(=N\N1CCCCC1c1cccnc1)c1c(O)n(C2CCCCC2)c(=S)[nH]c1=O (stereo not given), the Potency was inconclusive: 22.4 µM [inhibitor, single point].
With COc1cc(/C=C(/C(=O)c2cccs2)c2nc3ccccc3[nH]2)ccc1O the Potency was inconclusive: 29.1 µM [inhibitor, single point].
With Cc1ccc(Cn2ccc(NC(=O)c3cc(C)on3)n2)cc1 the “activity change, negative = inhibition” value was inactive: 9.82%.
With Cc1ccc(-c2cc(C(=O)N/N=C/c3c(C)nn(C)c3C)c3ccccc3n2)cc1C the Potency was inconclusive: 35.5 µM [inhibitor, single point].
For CC(C)CCn1c(=O)c(C(=O)Nc2ccccc2S(N)(=O)=O)c(O)c2ccccc21, the Potency was inconclusive: 25.1 µM [inhibitor, single point].
In the case of CCSc1nc(-c2cccs2)nc2ccccc12, the “activity change, negative = inhibition” value was inactive: 12.7%.
In the case of COc1cccc(Oc2coc3c(CN4CCOCC4)c(O)ccc3c2=O)c1, the Potency was inconclusive: 0.501 µM [inhibitor, full curve, poor fit].
With O=C1c2ccccc2C(=O)c2c1cccc2N1CCN(C/C=C/c2ccccc2)CC1 the “activity change, negative = inhibition” value was inactive: -2.1%.
With COc1ccccc1NC1=CC(=O)CC(c2ccccc2)C1 (stereo not given) the Potency was active: 7.31 µM.
For N#CC1(NC(=O)CSc2nnc(Nc3ccccc3F)s2)CCCC1, the “activity change, negative = inhibition” value was inactive: -15.7%.
In the case of COc1ccccc1N1CCN(C(=O)C2CCCN(S(=O)(=O)c3ccc4c(c3)CCCN4C(C)=O)C2)CC1 (stereo not given), the Potency was inconclusive: 35.5 µM [inhibitor, single point] and inconclusive: 14.1 µM [inhibitor, partial curve, poor fit].
In the case of COc1cc(NC(=O)CSc2nc3nc(C)c(Cc4ccccc4Cl)c(C)n3n2)cc(OC)c1, the Potency was inconclusive: 35.5 µM [activator, single point].
In the case of Cc1ccc2c(=O)cc(C(=O)Nc3c(C)n(C)n(-c4ccccc4)c3=O)oc2c1, the Potency was inconclusive: 12.6 µM [activator, partial curve, poor fit].
In the case of COc1ccc(NC(=O)/C(Cl)=C(/Cl)S(=O)(=O)Cc2ccc(C)cc2)cn1, the Potency was active: 14.1 µM.
With CC(NC(=O)c1ccc(Cn2cc([N+](=O)[O-])cn2)cc1)c1ccccc1 (stereo not given) the Potency was inconclusive: 3.98 µM [inhibitor, single point].
In the case of Nc1nnc(COc2ccccc2)s1, the Potency was inconclusive: 35.5 µM [inhibitor, single point].
With Cc1ccc(SCCC(=O)Nc2ccccc2C(=O)NC(C)C)cc1 the “activity change, negative = inhibition” value was inactive: -13%.
With CC(NC(=O)c1cccc(S(=O)(=O)N(C)C)c1)c1nc2ccccc2[nH]1 (stereo not given) the Potency was inconclusive: 35.5 µM [activator, single point].
With CC(=O)c1ccc(OCC(=O)NC2CCS(=O)(=O)C2)cc1 (stereo not given) the Potency was inconclusive: 5.17 µM [inhibitor, partial curve, poor fit].
With O=C(CN1CCOCC1)NCCC12CC3CC(CC(C3)C1)C2 the “activity change, negative = inhibition” value was inactive: 0.145%.
For CC(=O)CC(=O)Nc1ccc(Cl)cn1, the “activity change, negative = inhibition” value was inactive: 1.46%.
With COc1ccc(CC(=O)Nc2sccc2C#N)cc1S(=O)(=O)N1CCOCC1 the Potency was inconclusive: 0.398 µM [activator, partial curve, poor fit].
With CCN1CCN(C(c2cccc(OC)c2)c2sc3nc(C)nn3c2O)CC1 (stereo not given) the “activity change, negative = inhibition” value was inactive: 3.89%.
In the case of Cc1ccc2[nH]c(CNC(=O)c3ccccc3F)cc2c1, the Potency was inconclusive: 14.1 µM [inhibitor, single point].
In the case of Cc1cc(C)cc(NC(=O)Cc2noc3ccccc23)c1, the Potency was inconclusive: 0.631 µM [inhibitor, full curve, poor fit].
In the case of Clc1ccc(OCc2nnc(-c3ccccc3Br)o2)c(Cl)c1, the Potency was inconclusive: 6.51 µM [activator, single point].
For N/C(=N\OC(=O)c1ccc(Br)o1)c1ccccn1, the Potency was inconclusive: 11.2 µM [inhibitor, partial curve, poor fit].
For Cn1c(=O)[nH]c(=O)c2c1nc(Br)n2CCCO, the Potency was inconclusive: 4.11 µM [inhibitor, partial curve, poor fit].
In the case of OCCC1CN(Cc2cnc(-c3ccc(Cl)cc3)nc2)CCN1C1CCCC1 (stereo not given), the “activity change, negative = inhibition” value was inactive: -4.62%.
For O=C(CNS(=O)(=O)c1ccc(Br)cc1)N1CCN(Cc2ccccc2)CC1, the “activity change, negative = inhibition” value was inactive: -6.28%.
With COC(=O)Cn1c(=NC(=O)c2nc3ccccc3s2)sc2cc(S(C)(=O)=O)ccc21 the “activity change, negative = inhibition” value was inactive: 18.1%.
For O=C(NC1CCCC1)C(c1ccc(N2CCOCC2)cc1)N(Cc1ccccc1)C(=O)c1ccco1 (stereo not given), the “activity change, negative = inhibition” value was inactive: -14%.
In the case of O=C(NNc1nc2ccccc2s1)Nc1ccccc1, the Potency was inconclusive: 35.5 µM [activator, single point].
With Cc1nn(Cc2cccc(C(=O)NN)c2)c(C)c1Cl the Potency was inconclusive: 1.26 µM [inhibitor, single point].
For Cc1ccc2c(c1)c1cccc3c1n2CCN3CCC(N)=O, the Potency was inconclusive: 0.891 µM [activator, partial curve, poor fit].
For C#CC[N+]1(CC#Cc2ccccc2)CCOCC1, the “activity change, negative = inhibition” value was inactive: 24.6%.
With CC(C)NS(=O)(=O)c1ccc(CCC(=O)Nc2ccc3c(c2)OCCO3)cc1 the “activity change, negative = inhibition” value was inactive: -9.15%.
In the case of COc1cc(NC(=O)CSc2c3c(nc4ccccc24)CCC3)cc(OC)c1OC, the Potency was inconclusive: 35.5 µM [inhibitor, partial curve, poor fit].
In the case of NC(=O)c1cc(S(=O)(=O)N2CCN(c3cccc(C(F)(F)F)c3)CC2)cs1, the “activity change, negative = inhibition” value was inactive: -15% [at 46.1 µM].
For OCCN1CCN(CCOc2ccccc2-c2ccccc2)CC1, the Potency was inconclusive: 15.8 µM [inhibitor, single point].
In the case of COc1ccc(Cl)cc1NC(=O)C/C(C)=N/NC(=O)CCc1ccccc1, the Potency was inconclusive: 7.94 µM [inhibitor, partial curve, poor fit].
In the case of Cc1ccc(-c2nn3c(C)nnc3c3ccccc23)cc1S(=O)(=O)NCC(C)O (stereo not given), the “activity change, negative = inhibition” value was inactive: -15% [at 46.1 µM].
In the case of Brc1ccc(CN2CCCCCC2)cc1, the Potency was inconclusive: 35.5 µM [activator, single point].
With Cc1cccc2cc(C3CC(c4ccco4)=NN3S(=O)(=O)c3ccccc3)c(Cl)nc12 (stereo not given) the Potency was inconclusive: 7.08 µM [inhibitor, full curve, poor fit].
For C=CCn1c(=O)c(C=Nc2c(OC)cccc2[N+](=O)[O-])c(O)n(CCCC)c1=O, the Potency was inconclusive: 4.11 µM [inhibitor, single point].
With O=C(c1ccc2c(c1)N(Cc1ccc(F)cc1)C(=O)c1ccccc1S2(=O)=O)N1CCCCC1 the “activity change, negative = inhibition” value was inactive: -5.79% [at 46.1 µM].
In the case of Cc1ccc2cccc(NC(=S)NC(=O)c3ccn(C)n3)c2n1, the Potency was inconclusive: 11.6 µM [inhibitor, partial curve].
For Cc1cc(C)c2c(N)c(C(=O)NCc3ccco3)sc2n1, the Potency was inconclusive: 20 µM [activator, single point].
In the case of Cc1ccc(SCc2nc3ccccc3n2CC(=O)Nc2c(C)cccc2C)cc1, the Potency was inconclusive: 6.51 µM [inhibitor, full curve, poor fit].
With CC(C)(C)c1ccc(CNc2ccc([N+](=O)[O-])cn2)cc1 the Potency was inconclusive: 29.1 µM [inhibitor, single point].
In the case of CCN1C(=O)C(CC(=O)Nc2ccc(OC)cc2)N(Cc2ccc(OC)c(OC)c2)C1=S (stereo not given), the “activity change, negative = inhibition” value was inactive: 14.4%.
For Cn1c(=O)c2[nH]c(C=Cc3ccc4c(c3)OCO4)nc2n(C)c1=O, the “activity change, negative = inhibition” value was inactive: 14%.
For CN(Cc1ccccc1F)C(=O)C1CCCN(C(=O)c2ccc(Cl)cc2)C1 (stereo not given), the Potency was inconclusive: 35.5 µM [inhibitor, partial curve, poor fit].
In the case of Cc1cc2cc3c(cc2nc1SCC(=O)N1c2ccccc2CC1C)OCO3 (stereo not given), the Potency was inconclusive: 20 µM [inhibitor, partial curve, poor fit].
With CN1/C(=C\C(=O)c2cncc(Br)c2)C(C)(C)c2ccccc21 the Potency was inconclusive: 7.31 µM [inhibitor, partial curve, poor fit].
In the case of COc1cc(/C=N/NC(=O)CSc2cc(C)c(Br)cc2C)ccc1O, the Potency was inconclusive: 29.1 µM [inhibitor, single point].
For CCCCCCOc1ccc(C2C(=O)N(C3CCCCC3)CC(=O)N2C2CCCCC2)cc1 (stereo not given), the “activity change, negative = inhibition” value was inactive: 22.2% [at 46.1 µM].
In the case of CCOc1ccc(CN2CCNC(=O)C2CC(=O)O)cc1 (stereo not given), the Potency was inconclusive: 12.6 µM [activator, partial curve].
In the case of CCc1ccc(N(C(=O)c2csnn2)C(C(=O)NC(C)(C)C)c2ccncc2)cc1 (stereo not given), the Potency was inconclusive: 10.3 µM [activator, partial curve, poor fit].
In the case of O=Nc1c(O)[nH]c2ccc(Cl)c(Cl)c12, the “activity change, negative = inhibition” value was inactive: 3.6% [at 46.1 µM].
With NC(=O)C1(N2CCCCC2)CCN(C(=O)CSc2nc3ccccc3o2)CC1 the “activity change, negative = inhibition” value was inactive: -1.83%.
With NC(N)=NC(=S)Nc1ccc(Cl)cc1 the Potency was inconclusive: 5.62 µM [activator, single point].
In the case of O=C(CNC(=O)c1ccccc1Cl)N/N=C/c1ccc([N+](=O)[O-])s1, the Potency was inconclusive: 35.5 µM [inhibitor, single point].
In the case of COc1cccc(-n2c(/C=C/c3ccccn3)nc3ccccc3c2=O)c1, the Potency was inconclusive: 11.2 µM [inhibitor, partial curve].
In the case of O=C1CC(N2CCC(c3nc4ccccc4o3)CC2)C(=O)N1Cc1cccs1 (stereo not given), the “activity change, negative = inhibition” value was inactive: -14.6%.
In the case of COC(CNC(=O)c1c[nH]c2ccc(S(=O)(=O)N3CCC4(CC3)OCCO4)cc2c1=O)OC, the Potency was inconclusive: 0.708 µM [inhibitor, single point].
With Cc1ccccc1-c1ccc(Nc2ccc(N3CCOCC3)cc2)nn1 the “activity change, negative = inhibition” value was inactive: -2.2%.
With Cc1ccc(NC(=O)c2ccc3ccccc3n2)cc1S(=O)(=O)N1CCOCC1 the Potency was inconclusive: 12.6 µM [inhibitor, partial curve, poor fit].
In the case of CC(=O)Nc1ccc(-c2csc(NC(=O)CCNC(=O)c3ccco3)n2)cc1, the “activity change, negative = inhibition” value was inactive: -1.41% [at 46.1 µM].
With CCc1c(C)c2cc3c(c(C)c2oc1=O)OCN(CCc1ccccc1F)C3 the Potency was inconclusive: 15.8 µM [inhibitor, single point].
